Results reported in patent US4487708A (priority 1981, dated 1984).

assay: stepwise test for identification of mu-amines with hydroquinone; parameters: key: An asterisk (*) in a column indicates a positive result; settings: 10 g amine, 10 g hydroquinone, 80 g water; no precipitate

Compound	Results upon completion of Step 4: Possible mu-Amine
CC(O)CN (centres unmarked) [Monoisopropanolamine]	*
CCC(C)N (centres unmarked) [sec-Butylamine]	*
CC(O)CNCC(C)O (centres unmarked) [Diisopropanolamine]	*
NCCNCCNCCN [Triethylenetetramine]	*
COCCCN [Methoxypropylamine]	*
NCCN [Ethylenediamine]	*
Dimethyl(iso)propanolamine	*
CN(C)CCCN [Dimethylaminopropylamine]	*
NCCO [Monoethanolamine]	*

same assay, conditions: 10 g amine, 10 g hydroquinone, 80 g water; precipitation within the jar

Compound	Results upon completion of Step 4: Not mu-Amine
NCCCCCCN [Hexamethylenediamine]	*
C1CN2CCN1CC2 [Triethylenediamine]	*
C1COCCN1 [Morpholine]	*
CC(C)(C)N [tert-Butylamine]	*
NC1CCCCC1 [Cyclohexylamine]	*

same assay, conditions: at least 70% of dissolved oxygen removed within one minute, pH 9-10

Compound	Results upon completion of Step 8: Definite mu-Amine
CC(O)CN (centres unmarked) [Monoisopropanolamine]	*
CCC(C)N (centres unmarked) [sec-Butylamine]	*
CC(O)CNCC(C)O (centres unmarked) [Diisopropanolamine]	*
NCCNCCNCCN [Triethylenetetramine]	*
COCCCN [Methoxypropylamine]	*
NCCN [Ethylenediamine]	*
Dimethyl(iso)propanolamine	*
CN(C)CCCN [Dimethylaminopropylamine]	*
NCCO [Monoethanolamine]	*

same assay, conditions: passes 5 micron filter paper unhindered

Compound	Results upon completion of Step 6: Possible mu-Amine
CC(O)CN (centres unmarked) [Monoisopropanolamine]	*
CCC(C)N (centres unmarked) [sec-Butylamine]	*
CC(O)CNCC(C)O (centres unmarked) [Diisopropanolamine]	*
NCCNCCNCCN [Triethylenetetramine]	*
COCCCN [Methoxypropylamine]	*
NCCN [Ethylenediamine]	*
Dimethyl(iso)propanolamine	*
CN(C)CCCN [Dimethylaminopropylamine]	*
NCCO [Monoethanolamine]	*
